Data set [1] deals with T1, RC3H1-N2 (RING+ROQ+CCCH Zn finger) (Homo sapiens) (UniProt Q5TC82).
T1 sequence (looked up): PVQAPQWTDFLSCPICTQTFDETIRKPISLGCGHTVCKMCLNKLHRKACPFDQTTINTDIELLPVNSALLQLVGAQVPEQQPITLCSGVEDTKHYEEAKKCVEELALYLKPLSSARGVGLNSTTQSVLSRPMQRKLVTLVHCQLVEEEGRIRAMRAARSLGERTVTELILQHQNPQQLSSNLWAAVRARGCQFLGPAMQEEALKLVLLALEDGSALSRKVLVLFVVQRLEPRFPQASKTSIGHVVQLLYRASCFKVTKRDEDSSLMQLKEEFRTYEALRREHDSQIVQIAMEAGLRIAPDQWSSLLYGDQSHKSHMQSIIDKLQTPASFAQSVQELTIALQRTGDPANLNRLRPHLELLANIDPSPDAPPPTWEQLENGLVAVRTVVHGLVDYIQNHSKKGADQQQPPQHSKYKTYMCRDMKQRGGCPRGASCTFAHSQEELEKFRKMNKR
Kind of data set: EMSA. The following applies: EMSA: 20 mM Tris-HCl pH 7.5, 50 mM KCl, 5 mM MgCl2, 20 uM ZnSO4, 10% glycerol, 2 mM DTT, 0.05 mg/ml BSA, 5 ug/ml heparin, 50 fmol RNA in 20 ul, room temperature, recombinant protein, residues 2-452, protein details: N-terminal His7, TEV-cleaved. For orientation: Mobility shift assays separate free from complexed probe on a gel.

Data set [2] deals with T2, RC3H1-N1 (RING+ROQ) (Homo sapiens) (UniProt Q5TC82).
T2 sequence (looked up): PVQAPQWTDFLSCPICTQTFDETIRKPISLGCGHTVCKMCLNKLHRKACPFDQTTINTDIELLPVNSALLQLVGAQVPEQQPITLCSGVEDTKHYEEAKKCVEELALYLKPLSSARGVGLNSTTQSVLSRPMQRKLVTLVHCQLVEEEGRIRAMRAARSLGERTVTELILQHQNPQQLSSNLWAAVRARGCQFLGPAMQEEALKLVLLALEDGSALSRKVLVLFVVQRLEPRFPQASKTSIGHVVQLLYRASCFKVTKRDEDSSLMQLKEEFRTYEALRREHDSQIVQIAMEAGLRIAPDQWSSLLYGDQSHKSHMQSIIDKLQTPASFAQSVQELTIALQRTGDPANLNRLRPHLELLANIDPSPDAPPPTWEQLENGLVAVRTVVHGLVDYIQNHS
Put plainly: EMSA. The settings on record: lower affinity than RC3H1-N2; EMSA: 20 mM Tris-HCl pH 7.5, 50 mM KCl, 5 mM MgCl2, 20 uM ZnSO4, 10% glycerol, 2 mM DTT, 0.05 mg/ml BSA, 5 ug/ml heparin; 50 fmol RNA in 20 ul, room temperature; recombinant protein; residues 2-399; protein details: N-terminal His7, TEV-cleaved; label: 5'-32P.

A weaker result is weaker than the reference pair of the same experiment. Protein sequences can lack the tags named with them.

In the case of “AUAUAUAAUAUACCCUUACAUUAUGUAUGAGGGAUUU / AAATCCCTCATACATAAT [A20 (37 nt) + antisense LNA]”, the binding result in data set [1] (increasing antisense LNA oligonucleotide, LNA in strand 2: +AA+AT+CC+CT+CA+TA+CA+TAA+T (+ = next residue is LNA), label: 5'-32P on RNA) is reported as “binds more weakly”.
Turning to CCCUUACAAAAAGUAUGAGGG [Mut2 (21 nt)], the binding result in data set [1] (slight reduction vs WT, label: 5'-32P) is “binds more weakly”.
Turning to “CCCUUACAUUAUGUAUGAGGG [A20 (21 nt) stem-loop WT]”, the binding result in data set [2] is reported as “binds more weakly”.
